From patent US8802853B2, “Arylalkenyl and arylalkynyl substituted imidazoquinolines” (3M Innovative Properties Company, priority 2003, dated 2014)
Some results were stated once for a whole list of compounds, not compound by compound.

Tested on: human peripheral blood mononuclear cells (PBMC)
Test: Cytokine induction in human cells (IFN-α and TNF-α secreted into culture media, ELISA/IGEN)
Format: cell-based
Details: compounds generally tested at 30-0.014 μM, incubated 18 to 24 hours at 37° C.

CCc1nc2c(N)nc3ccccc3c2n1CC#Cc1cccnc1 [Example 1, 2-Ethyl-1-[3-(pyridin-3-yl)-2-propynyl]-1H-imidazo[4,5-c]quinolin-4-amine]
modulation of cytokine biosynthesis: induction of the production of interferon α and/or tumor necrosis factor α: inducing the production of interferon α and/or tumor necrosis factor α

CCc1nc2c(N)nc3ccccc3c2n1CC#Cc1cccs1 [Example 2, 2-Ethyl-1-[3-(thien-2-yl)-2-propynyl]-1H-imidazo[4,5-c]quinolin-4-amine]
modulation of cytokine biosynthesis: induction of the production of interferon α and/or tumor necrosis factor α: inducing the production of interferon α and/or tumor necrosis factor α

CCc1nc2c(N)nc3ccccc3c2n1CC#Cc1ccc(C#N)cc1 [Example 3, 4-[3-(4-Amino-2-ethyl-1H-imidazo[4,5-c]quinolin-1-yl)-1-propynyl]benzonitrile]
modulation of cytokine biosynthesis: induction of the production of interferon α and/or tumor necrosis factor α: inducing the production of interferon α and/or tumor necrosis factor α

CCc1nc2c(N)nc3ccccc3c2n1CC#Cc1ccccc1 [Example 4, 2-Ethyl-1-(3-phenyl-2-propynyl)-1H-imidazo[4,5-c]quinolin-4-amine]
modulation of cytokine biosynthesis: induction of the production of interferon α and/or tumor necrosis factor α: inducing the production of interferon α and/or tumor necrosis factor α

CCc1nc2c(N)nc3ccccc3c2n1CC#Cc1cnccn1 [Example 5, 2-Ethyl-1-[3-(pyrazin-2-yl)-2-propynyl]-1H-imidazo[4,5-c]quinolin-4-amine]
modulation of cytokine biosynthesis: induction of the production of interferon α and/or tumor necrosis factor α: inducing the production of interferon α and/or tumor necrosis factor α

CCOC(=O)c1ccc(C#CCn2c(CC)nc3c(N)nc4ccccc4c32)cc1 [Example 6, Ethyl 4-[3-(4-Amino-2-ethyl-1H-imidazo[4,5-c]quinolin-1-yl)-1-propynyl]benzoate]
modulation of cytokine biosynthesis: induction of the production of interferon α and/or tumor necrosis factor α: inducing the production of interferon α and/or tumor necrosis factor α

CCc1nc2c(N)nc3ccccc3c2n1CC#Cc1ccc(OC)cc1 [Example 7, 2-Ethyl-1-[3-(4-methoxyphenyl)-2-propynyl]-1H-imidazo[4,5-c]quinolin-4-amine]
modulation of cytokine biosynthesis: induction of the production of interferon α and/or tumor necrosis factor α: inducing the production of interferon α and/or tumor necrosis factor α

CCc1nc2c(N)nc3ccccc3c2n1CC#Cc1cccc(C(F)(F)F)c1 [Example 8, 2-Ethyl-1-[3-(3-trifluoromethylphenyl)-2-propynyl]-1H-imidazo[4,5-c]quinolin-4-amine]
modulation of cytokine biosynthesis: induction of the production of interferon α and/or tumor necrosis factor α: inducing the production of interferon α and/or tumor necrosis factor α

CCc1nc2c(N)nc3ccccc3c2n1CC#Cc1ccccc1C(F)(F)F [Example 9, 2-Ethyl-1-[3-(2-trifluoromethylphenyl)-2-propynyl]-1H-imidazo[4,5-c]quinolin-4-amine]
modulation of cytokine biosynthesis: induction of the production of interferon α and/or tumor necrosis factor α: inducing the production of interferon α and/or tumor necrosis factor α

CCc1nc2c(N)nc3ccccc3c2n1CC#Cc1ccc([N+](=O)[O-])cc1 [Example 10, 2-Ethyl-1-[3-(4-nitrophenyl)-2-propynyl]-1H-imidazo[4,5-c]quinolin-4-amine]
modulation of cytokine biosynthesis: induction of the production of interferon α and/or tumor necrosis factor α: inducing the production of interferon α and/or tumor necrosis factor α

CCc1nc2c(N)nc3ccccc3c2n1CC#Cc1cccc([N+](=O)[O-])c1 [Example 11, 2-Ethyl-1-[3-(3-nitrophenyl)-2-propynyl]-1H-imidazo[4,5-c]quinolin-4-amine]
modulation of cytokine biosynthesis: induction of the production of interferon α and/or tumor necrosis factor α: inducing the production of interferon α and/or tumor necrosis factor α

CCc1nc2c(N)nc3ccccc3c2n1CCCC#Cc1cccs1 [Example 12, 2-Ethyl-1-[5-(thien-2-yl)-4-pentynyl]-1H-imidazo[4,5-c]quinolin-4-amine]
modulation of cytokine biosynthesis: induction of the production of interferon α and/or tumor necrosis factor α: inducing the production of interferon α and/or tumor necrosis factor α

CCc1nc2c(N)nc3ccccc3c2n1CCCC#Cc1cccnc1 [Example 13]
modulation of cytokine biosynthesis: induction of the production of interferon α and/or tumor necrosis factor α: inducing the production of interferon α and/or tumor necrosis factor α

CCc1nc2c(N)nc3ccccc3c2n1CCCC#Cc1ccc(OC)cc1 [Example 14, 2-Ethyl-1-[5-(4-methoxyphenyl)-4-pentynyl]-1H-imidazo[4,5-c]quinolin-4-amine]
modulation of cytokine biosynthesis: induction of the production of interferon α and/or tumor necrosis factor α: inducing the production of interferon α and/or tumor necrosis factor α

CCc1nc2c(N)nc3ccccc3c2n1CCCC#Cc1ccccc1 [Example 15, 2-Ethyl-1-(5-phenyl-4-pentynyl)-1H-imidazo[4,5-c]quinolin-4-amine]
modulation of cytokine biosynthesis: induction of the production of interferon α and/or tumor necrosis factor α: inducing the production of interferon α and/or tumor necrosis factor α

CCc1nc2c(N)nc3ccccc3c2n1CCCC#Cc1cccc(C(F)(F)F)c1 [Example 16, 2-Ethyl-1-[5-(3-trifluoromethylphenyl)-4-pentynyl]-1H-imidazo[4,5-c]quinolin-4-amine]
modulation of cytokine biosynthesis: induction of the production of interferon α and/or tumor necrosis factor α: inducing the production of interferon α and/or tumor necrosis factor α

CCc1nc2c(N)nc3ccccc3c2n1CCC/C=C/c1cccnc1 [Example 17, (E)-2-Ethyl-1-[5-(pyridin-3-yl)-4-pentenyl]-1H-imidazo[4,5-c]quinolin-4-amine]
modulation of cytokine biosynthesis: induction of the production of interferon α and/or tumor necrosis factor α: inducing the production of interferon α and/or tumor necrosis factor α

CCc1nc2c(N)nc3ccccc3c2n1CCC/C=C/c1ccc(OC)cc1 [Example 18, (E)-2-Ethyl-1-[5-(4-methoxyphenyl)-4-pentenyl]-1H-imidazo[4,5-c]quinolin-4-amine]
modulation of cytokine biosynthesis: induction of the production of interferon α and/or tumor necrosis factor α: inducing the production of interferon α and/or tumor necrosis factor α
